Test results: article PMC7819943, “Rice protein-binding microarrays: a tool to detect cis-acting elements near promoter regions in rice”
The other results are listed elsewhere or left out.

Chains of the proteins cited; added tags and fusions are not shown.
UniProt Q0JBA9, entry or part of it: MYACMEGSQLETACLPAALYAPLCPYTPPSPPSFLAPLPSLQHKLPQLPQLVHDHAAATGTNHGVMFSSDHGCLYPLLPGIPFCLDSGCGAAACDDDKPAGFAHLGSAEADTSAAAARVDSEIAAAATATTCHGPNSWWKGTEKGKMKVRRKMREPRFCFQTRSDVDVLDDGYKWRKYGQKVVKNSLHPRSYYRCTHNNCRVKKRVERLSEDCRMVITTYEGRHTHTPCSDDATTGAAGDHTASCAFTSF

Target: OsWRKY34 (Oryza sativa, UniProt Q0JBA9 1-250)
Assay: protein-binding microarray (RPBM); PBS, 2% BSA, 51.3 ng/ul salmon testes DNA, 50 uM zinc acetate, 200 nM TF, 25 C, 1 h; high values mean tight binding
Conditions: protein: recombinant; tags: N-terminal polyhistidine and DsRed monomer fusion (pET32a); label: CyDye5-dUTP incorporated in the synthesized complementary strand; 3' TTTTT single-stranded linker to array surface; dsDNA, one strand shown
Procedure, shortened: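 For the binding signal, per-feature fluorescence intensity was read in arbitrary units on an Axon 4000B scanner. Before scanning, a 2% BSA-blocked custom Agilent array made double-stranded with Cy5-dUTP was washed after 1 h at 25 °C with 200 nM protein and 50 µM zinc acetate. The proteins were Ni–NTA-purified transcription factors with N-terminal polyhistidine and DsRed fusions, expressed in E. coli BL21-CodonPlus.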

First: TCCTCGGACTCTTCGTCGTTCCAAGTTCTCAAGTTCATCGCGGAGTCACCTAGTGCAG
Second: CCCGTCCCTAATTAACCGCCGTTCCTCTCGCGCCTCACCACGGAGTCACCTAGTGCAG
The binding signal of the first is higher: 9600 fluorescence intensity (a.u.) for the first, 9550 fluorescence intensity (a.u.) for the second.

Going from “GTTTCCATAGCATTACACTTTTGTAACTATTATTGTTTTGCGGAGTCACCTAGTGCAG” to “ATTGGTAGTTTTTTTGTGTGTATGAAAGTTTTCGATGTGACGGAGTCACCTAGTGCAG”, the binding signal falls from 9760 fluorescence intensity (a.u.) to 8070 fluorescence intensity (a.u.).

First: CGCGACGACGACTAGTTTATTTTGCACCACGTACGCACACCGGAGTCACCTAGTGCAG
Second: AGGCTAATCCAATCACCGAGCGCCACTTGTCTTCGTCTTCCGGAGTCACCTAGTGCAG
The binding signal of the first is higher: 8700 fluorescence intensity (a.u.) for the first, 8430 fluorescence intensity (a.u.) for the second.

Going from “CCTCCGTTTCTATATATTTAATATTGTTGACTTTTTAGCACGGAGTCACCTAGTGCAG” to “CCTCCTATCCAAATTCCAACTTTCTTTGTTGTCTCACTTTCGGAGTCACCTAGTGCAG”, the binding signal falls from 12000 fluorescence intensity (a.u.) to 11300 fluorescence intensity (a.u.).

Compared with “TGTTCTAATGATCTTCTGTTCACCCTGCTTCTGATTTTTACGGAGTCACCTAGTGCAG”, “CTTGAAGTCCATTGCACACTGTTTTTCCTCTCTCAACTATCGGAGTCACCTAGTGCAG” is lower in binding signal: 10500 fluorescence intensity (a.u.) for the first, 10200 fluorescence intensity (a.u.) for the second.

Compared with “GTGCCTACTGTCAGGTATGCAATCGATCCGGTCACGCAGCCGGAGTCACCTAGTGCAG”, “TTTTTTTTCACTATGCTTAGCACTCGTTTCACTATGCTTACGGAGTCACCTAGTGCAG” is higher in binding signal: 8150 fluorescence intensity (a.u.) for the first, 8310 fluorescence intensity (a.u.) for the second.

First: CAAGAACGTGCTTTGTTTTGATCTATGTTGCAACATCATCCGGAGTCACCTAGTGCAG
Second: GTGGTAGTCGAACGTGCCGAGCGAGTAGGTGGGGCGGGCGCGGAGTCACCTAGTGCAG
The binding signal of the first is lower: 8480 fluorescence intensity (a.u.) for the first, 11700 fluorescence intensity (a.u.) for the second.

Going from “TCGACTTGTATACGCACACTGCAACTTGCTTGCTTCCTCACGGAGTCACCTAGTGCAG” to “TCTGATTCGTTGGGTTGTGTGATGTGCAAAAGCTTAGGTTCGGAGTCACCTAGTGCAG”, the binding signal falls from 11200 fluorescence intensity (a.u.) to 8200 fluorescence intensity (a.u.).

Compared with “CCCTCGGTCCACCTGCACCCACCGCTCTCAGTCACCTCCTCGGAGTCACCTAGTGCAG”, “CACATGTCATTCACCCATAAAGACAGTTTGTGATGTTGCTCGGAGTCACCTAGTGCAG” is lower in binding signal: 9580 fluorescence intensity (a.u.) for the first, 8530 fluorescence intensity (a.u.) for the second.

First: AACCCTATACCCTCAAGGGCTATTGTGCAAAACCCCGTTCCGGAGTCACCTAGTGCAG
Second: ACGTCCACGAGTCCATGTCATGACACACCCCAAGTTGCTGCGGAGTCACCTAGTGCAG
The binding signal of the first is lower: 8340 fluorescence intensity (a.u.) for the first, 8470 fluorescence intensity (a.u.) for the second.

First: AATTGCACTGGATCAATAAGTAATCGTCTTCTATACTTTCCGGAGTCACCTAGTGCAG
Second: GGAATTTAGCATTTCGCTGGAGCATTCATGTATATGACTTCGGAGTCACCTAGTGCAG
The binding signal of the first is higher: 10200 fluorescence intensity (a.u.) for the first, 8700 fluorescence intensity (a.u.) for the second.

First: CTTTTCTGCACACTTTGTCCTCACTCAGCGCATGTGCCATCGGAGTCACCTAGTGCAG
Second: CACCCAACCTGCTGACTCATCATGTGGCACTAGCTTCTCTCGGAGTCACCTAGTGCAG
The binding signal of the first is lower: 9150 fluorescence intensity (a.u.) for the first, 10600 fluorescence intensity (a.u.) for the second.

Going from “ATCCATCCATCGATCGATTTTGCCTTGCCAGTTTTCATCCCGGAGTCACCTAGTGCAG” to “CGATACAATAGCTAGGGTTGGCTTTGGGCTTTGGCGCGGCCGGAGTCACCTAGTGCAG”, the binding signal falls from 13100 fluorescence intensity (a.u.) to 8900 fluorescence intensity (a.u.).

Going from “GTTAGTTGTGTAGGGCATCTTCTTAATTTGTTTTTGTTTTCGGAGTCACCTAGTGCAG” to “ATCGTCTCACTGTCTCACCGATCGAGCTAGCTCTCGTCGGCGGAGTCACCTAGTGCAG”, the binding signal falls from 14800 fluorescence intensity (a.u.) to 8370 fluorescence intensity (a.u.).

Going from “CATGCTCGCGGTCGCCGCCGCGCGCCACGTCGCGCCTTCACGGAGTCACCTAGTGCAG” to “CCTCAAAACCTCCGAGGGACCTCGTTTGCCCGGTTTTCATCGGAGTCACCTAGTGCAG”, the binding signal falls from 8680 fluorescence intensity (a.u.) to 8190 fluorescence intensity (a.u.).

Going from “ATAAATTTCCGTATCCAACGTTTTATGGTCTGTTTTATTTCGGAGTCACCTAGTGCAG” to “CCCACCCGCGCTTCTTCGCCACCGCCTGACCTCCACCCTGCGGAGTCACCTAGTGCAG”, the binding signal falls from 11200 fluorescence intensity (a.u.) to 8140 fluorescence intensity (a.u.).

First: GCTGTCAACCGTCCAGCCAATCCCACGCTCACACCTGCCACGGAGTCACCTAGTGCAG
Second: CCCACCACCCGCCCCGCTCGCCGACGCGGCGGCCATGGCGCGGAGTCACCTAGTGCAG
The binding signal of the first is higher: 12100 fluorescence intensity (a.u.) for the first, 10100 fluorescence intensity (a.u.) for the second.

Going from “TGCTTGTAACGTTTGATCACTCGTCTTATTCAATTTTTTTCGGAGTCACCTAGTGCAG” to “TCGATCGGTTGGTTGGTTGGTTTTGTTGGATTTTTTTCCTCGGAGTCACCTAGTGCAG”, the binding signal rises from 8150 fluorescence intensity (a.u.) to 18700 fluorescence intensity (a.u.).

First: ATTGTTGTGAGTTCTGGCTTGTGGTTTGTTCGAATTCTGGCGGAGTCACCTAGTGCAG
Second: AACCGTACAATTTTTCTTTTTGCTTTTCTTCCTGCCATATCGGAGTCACCTAGTGCAG
The binding signal of the first is lower: 8670 fluorescence intensity (a.u.) for the first, 9890 fluorescence intensity (a.u.) for the second.

First: CCTCTTTTTCTTTCTTTCTTGCGGAGGCGGAAGGTAGGGGCGGAGTCACCTAGTGCAG
Second: TCTCCTCTTTAAATTTCTCGCGCTGTTGTTGTTGTGATTTCGGAGTCACCTAGTGCAG
The binding signal of the first is higher: 11800 fluorescence intensity (a.u.) for the first, 8890 fluorescence intensity (a.u.) for the second.

Compared with “CGGTGGAGGCAGGCGTGGCGGGCGACGAGGAGAGGGGTGGCGGAGTCACCTAGTGCAG”, “CTAGTAGCTATTGACTTGGCCGCCAGAGTCGATGGTTGACCGGAGTCACCTAGTGCAG” is higher in binding signal: 8570 fluorescence intensity (a.u.) for the first, 9120 fluorescence intensity (a.u.) for the second.

First: TTTACTCATAAATATTGTTTGGAATTTCTCTGCGTATATTCGGAGTCACCTAGTGCAG
Second: TCTTGGGGACATGTAGCAATTTCCAGTCATTTGCCCCTTTCGGAGTCACCTAGTGCAG
The binding signal of the first is lower: 8140 fluorescence intensity (a.u.) for the first, 9210 fluorescence intensity (a.u.) for the second.

Going from “GCCTCATCCGATTTTGTTGCTAGTGAGTTTTTGAATATGCCGGAGTCACCTAGTGCAG” to “CAGTAAACATTAAAGCAAATCCGTCTCCAACTTGACTGCCCGGAGTCACCTAGTGCAG”, the binding signal rises from 8200 fluorescence intensity (a.u.) to 8460 fluorescence intensity (a.u.).

Going from “GCTCACCTAACCCATTCACGTGGCGCCAAACCCTCAGGGGCGGAGTCACCTAGTGCAG” to “CTCGTAGCGCTCGACCTCCTGCTTCTTCTCGTCGTCGTCGCGGAGTCACCTAGTGCAG”, the binding signal rises from 8250 fluorescence intensity (a.u.) to 8350 fluorescence intensity (a.u.).

Going from “GGCAACTCATGGTGTATGATGGATGGATATCGTTGTTTGCCGGAGTCACCTAGTGCAG” to “TGCCCTCCTTCTTCGTCTTCGTGAGATCATCTTGTCCCAACGGAGTCACCTAGTGCAG”, the binding signal rises from 8060 fluorescence intensity (a.u.) to 8510 fluorescence intensity (a.u.).

First: CCGCAACCCGCGCCGTCGACTTCCTCGCCAACGTAAGCCACGGAGTCACCTAGTGCAG
Second: ATCTTATCCGTCCATATGCCATCTCATCCCACTCCACCGACGGAGTCACCTAGTGCAG
The binding signal of the first is lower: 8820 fluorescence intensity (a.u.) for the first, 10400 fluorescence intensity (a.u.) for the second.

Compared with “TTCTTCCCAGCCAGTGTTCCTAGTATCCATTCTCTCTCAACGGAGTCACCTAGTGCAG”, “GGCCCGAACCTGTATAGATCGTCGGTGTCTCGTGTTTTCTCGGAGTCACCTAGTGCAG” is lower in binding signal: 9850 fluorescence intensity (a.u.) for the first, 9600 fluorescence intensity (a.u.) for the second.
